The target in experiment [1] is Influenza Hemagglutinin A (influenza A virus). The experiment in a line: ELISA of selected clones.
Experiment [2] addresses Influenza Hemagglutinin B (influenza B virus). Put plainly: ELISA of selected clones. In general terms: In an ELISA, binding on a coated surface is turned into a signal by an enzyme label.

Results are given in words; binding and its absence hold for the method and conditions named. A result given as binding can be weak or reduced; the word gives no strength.

B1: F1-04 (VHH)
VHH: QVQLVESGGGLVQVGGSLRLSCAASERPSSNYAMGWFRQAPGKEQEFVAAIYWSGGGTAYGDSVKGRFTISKDNAKNTVYLQMNDLKPEDTGMYYCTTDHYGSWSYEYGSWGQGTQVTVSS
Turning to B1, the binding entry in experiment [1] and in experiment [2] was “binds” throughout.

B2: F2-24 (VHH)
VHH: QVQLVESGGGLVQAGGSLRLSCASSGHTFNSYVMGWFRQAPGKEREFVAAIRPSGVSTYYADSVKGRFTISRDNAKNTVSLEMNSLKPEDTAVYYCAGDRDHSMMAVRRLSSYRQWGRGTQVTVSS
On to B2, for which the binding entry in experiment [1] and in experiment [2] was “binds” each time.

B3: F2-20 (VHH)
VHH: QVQLVESGGGLVQAGGSLRLSCAASGRTFSRYAMGWFRQAPGKEREFVARISWSGDITYYADSVKGRFTISRDNAKNTVYLQMNSLKPEDTAVYYCAADAILRTRPPYESDYWGQGTQVTVSS
As to B3, the binding entry in experiment [1] and in experiment [2] was “binds” each time.

B4: F2-02 (VHH)
VHH: QVQLVESGGGLVQAGGSLRLSCAASGRTFRSFAMGWFRQAPGKEREFVATISWWSNNTYYADSVKGRFTISRDIAKNTVYLQMNSLKPEDTAVYYCAADLGPWLTAGQYDYWGQGTQVTVSS
B4: the binding result in experiment [1] and in experiment [2] was “binds” in each case.

(Values after patent publication US12065483.)
